Experimental findings from doi:10.1101/2023.06.01.543273 are described below.

Results are given in words; binding and its absence hold for the method and conditions named. For some assays here: Binding seen in cells or lysates may run through a third protein. For some assays here: Binding can be weak; no strength is given.

Test [1] concerns the target T1, GvpA-based gas vesicles, shell of the major shell protein GvpA from Anabaena flos-aquae (Anabaena flos-aquae) (UniProt P10397).
T1 sequence: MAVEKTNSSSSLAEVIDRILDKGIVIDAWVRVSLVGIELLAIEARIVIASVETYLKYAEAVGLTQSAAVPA
The experiment in a line: condition: GvpU at 0.5 mg/mL added 1:5 v/v to GVs at OD500 = 0.5.

Test [2] has as its target GvpB-based gas vesicles (Mega GVs), shell of the major shell protein GvpB (Bacillus megaterium). Kind of test: co-sedimentation.

As for GvpU::6xHisTag (Bacillus megaterium), in test [1], the binding result is “no binding”.

B1: GvpC, minor shell protein from A. flos-aquae (protein, UniProt P09413 1-193)
chain: MISLMAKIRQEHQSIAEKVAELSLETREFLSVTTAKRQEQAEKQAQELQAFYKDLQETSQQFLSETAQARIAQAEKQAQELLAFHKELQETSQQFLSATAQARIAQAEKQAQELLAFYQEVRETSQQFLSATAQARIAQAEKQAQELLAFHKELQETSQQFLSATADARTAQAKEQKESLLKFRQDLFVSIFG
Consider B1, for which the binding result in test [2] is “binds”.
